Drawing on US4024248 (dated 1977), this text covers step yield and difficulty met for 20 substances.

Square brackets hold non-standard residues; d marks the D form. * marks the point of attachment. Cbz = O=C(OCc1ccccc1)*; Boc = CC(C)(C)OC(=O)*

A short description of the series: general procedure: solution-phase peptide synthesis; DCC/HOBt; active esters (OTcp, ONSu) with HOBt; azide coupling (tert.-butyl nitr). The following applies: 2 HCl (intermediates).
The mark [1] stands for this setting: late stage modification step, diacetate (final peptides).
Where [2] appears, read: coupling step, diacetate (final peptides).
The mark [3] stands for this setting: coupling step, calculated on H-Arg-Pro-NH-C2 H5 . 2 HCl, diacetate (final peptides).
The mark [4] stands for this setting: coupling step, calculated on Z-Ser-Tyr(Bzl)-OH, diacetate (final peptides).

“H-Ser-Tyr-D-Ser(Bu^t)-Leu-Arg-Pro-NH-C2 H5 ^. 2 HCl”: where the note is “coupling step, calculated on Z-D-Ser(Bu^t) Leu-Arg-Pro-NH-C2 H5, diacetate (final peptides)”, the step yield was 75%. For the substance “H-D-Ser(Bu^t)-Leu-Arg-Pro-cyclopropyl amide . 2 HCl”, the step yield under setting [1] is reported as 94%.

Substance “Glu-His-Trp-Ser-Tyr-D-Ser(Bu^t)-Ser(Bu^t)-Arg-Pro-NH-C2 H5” came in with a step yield under setting [2] of 38%. Turning to “H-D-Ser(Bu^t)-Ser(Bu^t)-Arg-Pro-NH-C2 H5 ^. 2 HCl”, under “coupling step, calculated on Z-D-Ser(Bu^t)-Otcp, diacetate (final peptides)”, the step yield is reported as 62%.

For “Z-Ser-Tyr(Bzl)-D-Ser(Bu^t)-Leu-Arg-Pro-cyclopropyl amide”, the step yield under setting [2] is listed as 71%. With Z-D-Ser(Bu^t)-Leu-Arg-Pro-NH-C2 H5, the step yield under setting [3] is 71%. Under setting [2], Cbz-[dK](Boc)LRPG-NH2 yielded a step yield of 77%. In the case of “H-D-Ser(Bu^t)-Leu-Arg-Pro-NH-C2 H5 ^. HCl”, the step yield under setting [1] was determined as 93%.

Regarding “Glu-His-Trp-Ser-Tyr-D-Ser(Bu^t)-Leu-Arg-Pro-cyclopropyl amidediacetate”, the step yield under setting [2] is given as 32%. In turn, “Glu-His-Trp-Ser-Tyr-D-Ser(Bu^t)-Leu-Arg-Pro-NH-C2 H5 -diacetate” came in with a step yield under setting [2] of 25%. Turning to “Z-D-Ser(Bu^t)-Leu-Arg-Pro-cyclopropyl amide”, the step yield (coupling step, calculated on H-Arg-Pro-cyclopropylamide . 2 HCl, diacetate (final peptides)) is 65%. Take “H-Ser-Tyr-D-Ser(Bu^t)-Leu-Arg-Pro-cyclopropyl amide . 2 HCl”: the step yield under setting [4] is 70%. Turning to “H-D-Lys(Boc)-Leu-Arg-Pro-Gly-NH2 ^. 2 HCl”, for the setting “coupling step, calculated on Z-D-Lys(Boc)-OTcp, diacetate (final peptides)”, the step yield is listed as 74%. Moreover, the difficulty met result under setting [2] is given as “not uniform according to thin-layer chromatography (contamination by two by-products)”. “Glu-His-Trp-Ser-Tyr-D-Glu(OBu^t)-Leu-Arg-Pro-NH-C2 H5 -diacetate” returned a step yield under setting [2] of 30%. Substance “H-D-Glu(OBu^t)-Leu-Arg-Pro-NH-C2 H5 ^. 2 HCl” displayed a step yield under setting [1] of 99.5%. In the case of “H-Ser-Tyr-D-Glu(OBu^t)-Leu-Arg-Pro-NH-C2 H5 ^. 2 HCl”, the step yield (coupling step, calculated on Z-D-Glu(OBu^t)-Leu-Arg-Pro-NH-C2 H5, diacetate (final peptides)) is 47%. The substance “Glu-His-Trp-Ser-Tyr-D-Lys(Boc)-Leu-Arg-Pro-Gly-NH2 -diacetate” registered a step yield under setting [2] of 17%.

Regarding Z-D-Glu(OBu^t)-Leu-Arg-Pro-NH-C2 H5, the step yield under setting [3] was 81%.

“H-Ser-Tyr-D-Ser(Bu^t)-Ser(Bu^t)-Arg-Pro-NH-C2 H5 ^. 2 HCl”: under setting [4], the step yield was 35%.

Consider “H-Trp-Ser-Tyr-D-Lys(Boc)-Leu-Arg-Pro-Gly-NH2 ^. 2 HCl”, for which the step yield under setting [2] came to 30%.
